Results are given in words; binding and its absence hold for the method and conditions named. Binding seen in cells or lysates may run through a third protein. Binding can be weak; no strength is given. Sequences can lack the tags named with a protein.
Target: T1, OsSAP6 fused to nLUC (pCAMBIA1300-nLUC-OsSAP6) (rice (Oryza sativa)) (UniProt Q852K5)
T1 sequence: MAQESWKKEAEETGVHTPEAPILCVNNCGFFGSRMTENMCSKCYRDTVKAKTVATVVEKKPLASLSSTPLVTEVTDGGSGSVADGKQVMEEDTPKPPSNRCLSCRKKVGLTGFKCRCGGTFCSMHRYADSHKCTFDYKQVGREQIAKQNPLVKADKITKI
Experiment: split reporter; LUC complementation imaging (LCI): pCAMBIA1300-nLUC-OsSAP6 and pCAMBIA1300-cLUC-OsPK5 co-injected by Agrobacterium into N. benthamiana leaves, 48 h, chemiluminescence imaging after luciferin

Q: Which binding does the source give for “OsPK5 fused to cLUC (pCAMBIA1300-cLUC-OsPK5) (rice (Oryza sativa)) (enzyme)” here?
A: binds

Source: PMC9794665
